Publication PMC9289710
Results are given in words; binding and its absence hold for the method and conditions named. For part of these data: In cells and extracts the contact can be indirect. Some binding calls cover weakened binding; strength is not graded here.

Amino acid sequences for entries named in this document (tags omitted).
UniProt P30153: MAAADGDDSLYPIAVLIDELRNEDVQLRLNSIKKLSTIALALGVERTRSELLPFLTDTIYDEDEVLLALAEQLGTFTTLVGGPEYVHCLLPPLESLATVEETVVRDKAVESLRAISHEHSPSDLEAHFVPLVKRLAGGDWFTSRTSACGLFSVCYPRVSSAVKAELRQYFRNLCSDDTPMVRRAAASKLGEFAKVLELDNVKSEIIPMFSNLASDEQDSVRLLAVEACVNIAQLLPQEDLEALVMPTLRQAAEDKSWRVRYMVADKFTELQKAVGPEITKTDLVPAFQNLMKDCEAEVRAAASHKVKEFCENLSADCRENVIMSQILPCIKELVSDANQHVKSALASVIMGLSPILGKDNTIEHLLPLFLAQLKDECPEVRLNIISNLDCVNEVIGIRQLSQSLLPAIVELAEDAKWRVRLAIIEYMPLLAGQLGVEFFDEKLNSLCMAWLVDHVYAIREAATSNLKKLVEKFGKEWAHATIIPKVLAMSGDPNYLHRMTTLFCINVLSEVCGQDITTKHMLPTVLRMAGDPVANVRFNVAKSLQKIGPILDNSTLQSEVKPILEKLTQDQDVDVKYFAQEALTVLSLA
UniProt Q15172: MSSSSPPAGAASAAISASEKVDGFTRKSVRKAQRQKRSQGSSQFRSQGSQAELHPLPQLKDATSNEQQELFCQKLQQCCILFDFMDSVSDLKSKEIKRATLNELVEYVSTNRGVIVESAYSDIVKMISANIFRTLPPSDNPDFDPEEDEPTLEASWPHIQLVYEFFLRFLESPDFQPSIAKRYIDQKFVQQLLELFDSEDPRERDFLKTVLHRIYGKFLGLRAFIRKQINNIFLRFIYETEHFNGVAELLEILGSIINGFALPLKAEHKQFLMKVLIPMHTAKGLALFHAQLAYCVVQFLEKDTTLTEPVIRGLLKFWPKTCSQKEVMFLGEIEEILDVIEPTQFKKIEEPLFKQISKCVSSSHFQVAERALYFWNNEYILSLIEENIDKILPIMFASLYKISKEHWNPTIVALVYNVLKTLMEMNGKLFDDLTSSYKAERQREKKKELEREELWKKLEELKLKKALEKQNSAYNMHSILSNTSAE

Columns and labels:
PP2A Aα subunit [1] = target: PP2A Aα subunit (UniProt P30153); assay: mass photometry; reconstituted PP2A-B56α holoenzyme at 50 nM, room temperature, without or with 2.5 µM DT-061; PBS or NMR buffer (methods); both purified
PP2A Aα subunit [2] = target: PP2A Aα subunit (UniProt P30153); assay: SEC; pure Aα and B56α and partially purified Cα mixed at a 1:1:1 molar ratio, dialysed overnight at 4°C, HiTrap Q anion exchange, then HiLoad Superdex 200 in 20 mM Tris-HCl pH 8.0, 250 mM NaCl, 5% glycerol, 2 mM DTT; fractions by SDS-PAGE; both purified
[3] = target: FLAG-myc-PPP2R1A (scaffold) (UniProt P30153); assay: co-IP; FLAG-myc-PPP2R1A immunoprecipitated on Myc-Trap agarose from stable inducible HeLa cells treated with DMSO, 20 µM DT-061 or 2 µM iHAP1 for 2 h; low salt lysis buffer; Western blotting
[4] = target: PPP2R1A (human (endogenous in HeLa and H358)) (UniProt P30153); assay: SEC; total cell extracts (HeLa, H358, HeLa with or without induced YFP-B56α; with or without DT-061) on Superdex200 10/300 in 130 mM NaCl, 25 mM Tris pH 7.4, 5 mM b-mercaptoethanol; fractions analysed by quantitative Licor Western blotting
Strep-B56α = Strep-B56α (UniProt Q15172); assay: pull-down; Strep-B56α, His-PP2ACA and MBP-PPP2R1A co-expressed in HEK293; complex purified by a Strep-tag affinity column, peak fractions run on a GF200 10/30 column; 100 mM Tris pH 8.0, 150 mM NaCl, 10% glycerol, 0.5 mM TCEP

Question: How did the binding (PP2A Aα subunit [1]) turn out when “PP2A B56α subunit (from UniProt Q15172 1-486)” was run?
Answer: binds

Question: What about the binding (PP2A Aα subunit [2]) of the same substance?
Answer: binds

Question: B56α (from UniProt Q15172 1-486) was tested. Which binding [3] did it give?
Answer: binds

Question: What about the binding [4] of the same substance?
Answer: binds

Question: With MBP-PPP2R1A (from UniProt P30153 1-589) as the substance, how does the binding (Strep-B56α) read?
Answer: binds

Question: Which binding [4] does the source give for YFP-B56α (from UniProt Q15172 1-486) here?
Answer: binds
